Results deposited as PubChem BioAssay AID602196 (INSERM, 2012)
Screen: 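Modifiers of cisplatin sensitivity in A549 cells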. Cell system: human A549 lung cancer cells. Knock-down reagent: siRNA pair against human genes. Duration: 48 h transfection before cisplatin; time from cisplatin to read-out not stated. Treatment: cisplatin at a dose killing half of control-siRNA cells; exact dose and duration not given. Detection: 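Cisplatin cell death as a shift from the 50% death seen with control siRNA; siRNAs toxic or growth-blocking alone scored 0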. Reading the numbers: two-siRNA summed score (-2 to +2): higher = both siRNAs protect from cisplatin killing; -2 means both sensitise; mean protection from cisplatin (shift in death) and protection from cisplatin (shift in death), siRNA C and protection from cisplatin (shift in death), siRNA D: higher = protection from cisplatin killing. Active means: 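Each siRNA scores 0 if harmful alone by LDH or WST-1, otherwise +1 if it reduces and -1 if it increases cisplatin killing; a gene is active when both siRNAs agree (sum +2 or -2)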. Calls: active = both siRNAs shift cisplatin killing the same way; inactive = no consistent shift, or siRNA harmful alone.
In all, the deposit lists about 23,000 reagents; this is a random part of them. Over the whole deposit, 455 (2%) got an active call. 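Active includes both protection and sensitisation; some change values fall well beyond the stated -50 to +50 range.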 The numbers tell different reagents against one gene apart. No sequences are given here. Not given: the amount of reagent.

| target | reagent | two-siRNA summed score (-2 to +2) | mean protection from cisplatin (shift in death) (%) | protection from cisplatin (shift in death), siRNA C (%) | protection from cisplatin (shift in death), siRNA D (%) | Outcome |
| --- | --- | --- | --- | --- | --- | --- |
| FNDC7 | 1 | 0 | -0.3 | -4.1 | 3.5 | inactive |
| LMX1B | 1 | 0 | 7.9 | 3 | 12.8 | inactive |
| LOC440476 | 1 | 1 | 14.4 | 8.1 | 20.7 | inactive |
| RGR | 1 | 0 | -0.4 | 7.6 | -8.5 | inactive |
| NDUFA5 | 1 | 0 | 7.9 | 6.7 | 9.2 | inactive |
| CST3 | 1 | 0 | 10.9 | 16.2 | 5.6 | inactive |
| CASP1P2 | 1 | 0 | 10.3 | 5.6 | 15.1 | inactive |
| IRF4 | 1 | -1 | -12.5 | -0.5 | -24.4 | inactive |
| PTGER2 | 1 | -1 | -15.3 | -24.4 | -6.2 | inactive |
| SLC47A2 | 1 | 0 | 1.7 | 1.7 | 1.8 | inactive |
| LOC440129 | 1 | 1 | 14.3 | 10.4 | 18.2 | inactive |
| CAMKK1 | 1 | 0 | 11.3 | 8.2 | 14.3 | inactive |
| MYO1C | 1 | -1 | -0.9 | -20.6 | 18.8 | inactive |
| PRKCG | 1 | 0 | 2.6 | 15.2 | -9.9 | inactive |
| PARD6B | 1 | 0 | 7.5 | 5.4 | 9.5 | inactive |
| LOC127550 | 1 | 1 | 7.6 | 13.6 | 1.7 | inactive |
| FCAR | 1 | 0 | 21.1 | -4.2 | 46.3 | inactive |
| RAP1GDS1 | 1 | -1 | -1.2 | 17.2 | -19.7 | inactive |
| CKAP2L | 1 | 0 | -5.7 | -7.5 | -3.9 | inactive |
| MAGEE1 | 1 | 0 | 8.3 | 6.1 | 10.4 | inactive |
| OSM | 1 | 0 | -3.1 | -6.4 | 0.3 | inactive |
| ARSB | 1 | 0 | 16.7 | 20.8 | 12.7 | inactive |
| HSPA5 | 1 | 0 | 5.7 | 29 | -17.6 | inactive |
| COL6A2 | 1 | 0 | 26.5 | 3.2 | 49.7 | inactive |
| WHR1 | 1 | 0 | 8.4 | 2.9 | 13.9 | inactive |
| KCNC3 | 1 | 0 | 8.2 | 12.7 | 3.7 | inactive |
| DIPK2A | 1 | 1 | 16.4 | 18.3 | 14.4 | inactive |
| STK17B | 1 | 1 | 13 | 19.6 | 6.5 | inactive |
| ATG9B | 1 | 0 | -2 | -18.3 | 14.3 | inactive |
| LRRC1 | 1 | 0 | 4.9 | 14.6 | -4.8 | inactive |
| KRT10 | 1 | 1 | 10 | 32.2 | -12.2 | inactive |
| SIGLECL1 | 1 | 0 | 0.7 | 0.1 | 1.3 | inactive |

No new results follow: an excerpt of the list.
| target | reagent | two-siRNA summed score (-2 to +2) | mean protection from cisplatin (shift in death) (%) | protection from cisplatin (shift in death), siRNA C (%) | protection from cisplatin (shift in death), siRNA D (%) | Outcome |
| --- | --- | --- | --- | --- | --- | --- |
| CAMKK1 | 1 | 0 | 11.3 | 8.2 | 14.3 | inactive |
| MYO1C | 1 | -1 | -0.9 | -20.6 | 18.8 | inactive |
| PRKCG | 1 | 0 | 2.6 | 15.2 | -9.9 | inactive |
| PARD6B | 1 | 0 | 7.5 | 5.4 | 9.5 | inactive |
| LOC127550 | 1 | 1 | 7.6 | 13.6 | 1.7 | inactive |
| FCAR | 1 | 0 | 21.1 | -4.2 | 46.3 | inactive |
| RAP1GDS1 | 1 | -1 | -1.2 | 17.2 | -19.7 | inactive |
| CKAP2L | 1 | 0 | -5.7 | -7.5 | -3.9 | inactive |
| MAGEE1 | 1 | 0 | 8.3 | 6.1 | 10.4 | inactive |

Next entries follow:
| target | reagent | two-siRNA summed score (-2 to +2) | mean protection from cisplatin (shift in death) (%) | protection from cisplatin (shift in death), siRNA C (%) | protection from cisplatin (shift in death), siRNA D (%) | Outcome |
| --- | --- | --- | --- | --- | --- | --- |
| VAMP4 | 1 | -1 | -6.3 | 12.7 | -25.3 | inactive |
| LOC388578 | 1 | 0 | 0.9 | 9.8 | -8 | inactive |
| LOC286144 | 1 | 1 | 17.1 | 17.4 | 16.7 | inactive |
| LOC440283 | 1 | 0 | 3.9 | 1.4 | 6.5 | inactive |
| SH2D1B | 1 | 0 | 7 | 8 | 5.9 | inactive |
| SNX10 | 1 | 0 | 4.3 | 1.5 | 7.1 | inactive |
| APOL5 | 1 | -1 | -4.5 | 3.3 | -12.2 | inactive |
| HLA-A | 1 | 0 | 7.6 | 11.4 | 3.8 | inactive |
| HLA-A | 2 | 0 | 11.7 | 18.8 | 4.5 | inactive |
| ZNF449 | 1 | 1 | 15.1 | 9.9 | 20.3 | inactive |
| LOC440871 | 1 | 0 | 10.4 | 11.9 | 9 | inactive |
| ZNF8 | 1 | 0 | 1.2 | -1 | 3.4 | inactive |
| CLPS | 1 | 0 | 4 | 11.8 | -3.9 | inactive |
| SCN5A | 1 | 0 | -1.6 | -11.1 | 7.9 | inactive |
| LOC341457 | 1 | 0 | 1.1 | -5.5 | 7.7 | inactive |
| STXBP3 | 1 | 1 | 13.1 | 17.7 | 8.5 | inactive |
| FURIN | 1 | -1 | -8.6 | -23.7 | 6.5 | inactive |
| DNMT3L | 1 | -1 | -14.6 | 4.8 | -34 | inactive |
| TM9SF2 | 1 | 0 | 12.8 | 13.6 | 12 | inactive |
| SDR39U1 | 1 | 0 | 2.6 | 2.9 | 2.3 | inactive |
| IGHV3OR16-17 | 1 | 2 | 24.8 | 22.3 | 27.3 | active |
| LOC441031 | 1 | 1 | 11 | 18.1 | 4 | inactive |
| ZNF3 | 1 | 0 | 5.7 | 4.8 | 6.7 | inactive |
| KIAA2012 | 1 | 0 | 3.4 | 13.4 | -6.6 | inactive |
| OR52N2 | 1 | 0 | 16.5 | 20.5 | 12.5 | inactive |
| EID2 | 1 | 0 | 5.7 | 13.7 | -2.2 | inactive |
| SAG | 1 | -1 | -14.9 | -6.8 | -23.1 | inactive |
| MLST8 | 1 | 0 | 2.4 | 6.8 | -2 | inactive |
| CCDC167 | 1 | 0 | -3.5 | -14.3 | 7.4 | inactive |
| ZNF354A | 1 | 0 | -6.3 | -2.1 | -10.5 | inactive |
| LOC391797 | 1 | 0 | 13.1 | 8.1 | 18.1 | inactive |
| PSD4 | 1 | 0 | 11.8 | 15.1 | 8.5 | inactive |
| FKBP2 | 1 | -1 | -8.2 | 2.3 | -18.8 | inactive |
| TGFBRAP1 | 1 | 0 | 0.1 | -10.1 | 10.4 | inactive |
| SLC7A10 | 1 | 0 | 0 | -4.3 | 4.4 | inactive |
| TAX1BP3 | 1 | 0 | -10.2 | -23.6 | 3.1 | inactive |
| MARVELD3 | 1 | 1 | 24.2 | 34.2 | 14.3 | inactive |
| IL22RA2 | 1 | -1 | -3.7 | 11.4 | -18.9 | inactive |
| LOC121006 | 1 | 1 | 19.8 | 11.5 | 28 | inactive |
| LOC440402 | 1 | 0 | 8.8 | 9.5 | 8.1 | inactive |
| CLTCL1 | 1 | -1 | -6.8 | -15.3 | 1.6 | inactive |
